# Experimental data: US10376520B2, “Methods for the treatment of cardiovascular disorders” (Galapagos NV, priority 2015, dated 2019)
# A unit is not stated for every read-out.
# Test system: RA patients
# Experiment: ApoA-I level (Selectra autoanalyzer), Study 4
# Assay type: in vivo, human
# Conditions: 4 weeks
# Procedure: Randomized double-blind, placebo-controlled add on study in subjects with active RA who have an inadequate response to MTX monotherapy, in combination with methotrexate, administered for 4 weeks in the treatment of subjects with active rheumatoid arthritis who have an inadequate response to methotrexate alone.
# Compound 1 (dosed as a [Compound 1:HCl:3H2O]) capsules administered orally in 30 mg, 75 mg, 150 mg, or 300 mg doses per day for 4 weeks.
# ApoAI, and ApoB were measured on the Selectra autoanalyzer (Sopachem BV, 44-RI Straat 33, 4051 AP Ochten, The Netherlands). All assays were commercially available from DiaSys Diagnostic Systems GmbH, Alte Strasse 9, 65558 Holzheim, Germany.
structure (smiles),measurement,setting,value
"O=C(Nc1nc2cccc(-c3ccc(CN4CCS(=O)(=O)CC4)cc3)n2n1)C1CC1 [Compound 1, cyclopropanecarboxylic acid {5-[4-(1,1-dioxo-thiomorpholin-4-ylmethyl)-phenyl]-[1,2,4]triazolo[1,5-a]pyridin-2yl}-amide]","ApoA-I level variation, t-test",30 mg q.d.,0.2
same,"ApoA-I level variation, t-test",75 mg q.d.,0.008
same,"ApoA-I level variation, t-test",150 mg q.d.,0.2
same,"ApoA-I level variation, t-test",300 mg q.d.,<0.0001
